This is an account of results in article PMC3106354 (Current Chemical Genomics, 2011).

The assay relates to LPS induced TNF-α production in THP-1 cells. Kind of assay: ELISA measurement of TNF-α: inhibition of LPS induced TNF-α production. The format is cell-based. The following applies: Homo sapiens, THP-1, 17 h, read-out: IC50 in ELISA assay (text, Fig. 5).

As to `O=[N+]([O-])c1ccc(-c2nc(-c3ccncc3)c(-c3ccc(F)cc3)[nH]2)cc1` [PD 169316], the IC50 (in general, the concentration at which inhibition is half-maximal) worked out at 10.6 nM.
